The results in this text go back to the supplement of paper PMC12819154, “High-throughput peptide-centric local stability assay extends protein–ligand identification to membrane proteins, tissues and bacteria” (Nature Structural & Molecular Biology, 2025).

Amino acid sequences for entries named in this document (tags omitted). A change or cut given only in a name is not applied to a line headed by its entry.
UniProt Q93034, whole entry: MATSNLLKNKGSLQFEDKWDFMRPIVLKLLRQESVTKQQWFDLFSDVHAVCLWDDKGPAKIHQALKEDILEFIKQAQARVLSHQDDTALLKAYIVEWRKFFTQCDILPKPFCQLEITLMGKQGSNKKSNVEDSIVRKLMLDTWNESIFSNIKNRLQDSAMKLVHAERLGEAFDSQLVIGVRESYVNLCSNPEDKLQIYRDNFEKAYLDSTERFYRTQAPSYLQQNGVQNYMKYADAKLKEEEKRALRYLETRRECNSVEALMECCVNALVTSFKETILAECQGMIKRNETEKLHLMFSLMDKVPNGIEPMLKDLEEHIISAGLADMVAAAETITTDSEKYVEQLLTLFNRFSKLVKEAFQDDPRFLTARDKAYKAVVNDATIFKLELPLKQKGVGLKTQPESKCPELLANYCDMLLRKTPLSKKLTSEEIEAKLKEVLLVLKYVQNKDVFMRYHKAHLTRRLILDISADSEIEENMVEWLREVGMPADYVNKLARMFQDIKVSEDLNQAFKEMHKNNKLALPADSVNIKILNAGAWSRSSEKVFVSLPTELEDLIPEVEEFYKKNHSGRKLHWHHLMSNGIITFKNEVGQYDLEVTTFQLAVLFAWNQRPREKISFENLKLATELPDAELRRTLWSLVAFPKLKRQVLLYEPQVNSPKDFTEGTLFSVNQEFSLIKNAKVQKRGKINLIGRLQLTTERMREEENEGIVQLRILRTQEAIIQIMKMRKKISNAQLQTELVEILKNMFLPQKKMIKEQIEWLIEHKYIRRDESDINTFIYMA
UniProt Q96A73: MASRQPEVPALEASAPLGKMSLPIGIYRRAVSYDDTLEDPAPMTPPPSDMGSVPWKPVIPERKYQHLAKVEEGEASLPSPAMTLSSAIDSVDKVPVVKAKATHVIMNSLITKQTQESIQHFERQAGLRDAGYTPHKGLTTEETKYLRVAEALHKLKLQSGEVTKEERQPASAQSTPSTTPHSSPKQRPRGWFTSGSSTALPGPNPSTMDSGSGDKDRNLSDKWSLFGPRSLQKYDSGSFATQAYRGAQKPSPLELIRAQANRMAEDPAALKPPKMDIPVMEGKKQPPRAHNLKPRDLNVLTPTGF
UniProt Q96B02: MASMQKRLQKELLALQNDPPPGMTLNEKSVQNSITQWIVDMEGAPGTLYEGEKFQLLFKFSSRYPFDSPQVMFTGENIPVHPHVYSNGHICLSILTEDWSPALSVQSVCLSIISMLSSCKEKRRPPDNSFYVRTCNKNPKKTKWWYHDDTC
UniProt Q96AJ9: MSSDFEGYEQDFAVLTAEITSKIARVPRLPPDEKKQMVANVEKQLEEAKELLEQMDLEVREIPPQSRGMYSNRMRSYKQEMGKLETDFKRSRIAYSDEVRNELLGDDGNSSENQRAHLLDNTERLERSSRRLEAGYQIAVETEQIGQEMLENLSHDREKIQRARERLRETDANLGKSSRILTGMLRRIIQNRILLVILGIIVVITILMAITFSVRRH
UniProt Q96C90: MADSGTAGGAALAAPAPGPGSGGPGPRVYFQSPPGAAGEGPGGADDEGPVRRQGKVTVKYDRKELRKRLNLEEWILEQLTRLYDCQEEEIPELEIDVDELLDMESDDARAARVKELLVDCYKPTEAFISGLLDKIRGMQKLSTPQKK
UniProt Q96GJ1: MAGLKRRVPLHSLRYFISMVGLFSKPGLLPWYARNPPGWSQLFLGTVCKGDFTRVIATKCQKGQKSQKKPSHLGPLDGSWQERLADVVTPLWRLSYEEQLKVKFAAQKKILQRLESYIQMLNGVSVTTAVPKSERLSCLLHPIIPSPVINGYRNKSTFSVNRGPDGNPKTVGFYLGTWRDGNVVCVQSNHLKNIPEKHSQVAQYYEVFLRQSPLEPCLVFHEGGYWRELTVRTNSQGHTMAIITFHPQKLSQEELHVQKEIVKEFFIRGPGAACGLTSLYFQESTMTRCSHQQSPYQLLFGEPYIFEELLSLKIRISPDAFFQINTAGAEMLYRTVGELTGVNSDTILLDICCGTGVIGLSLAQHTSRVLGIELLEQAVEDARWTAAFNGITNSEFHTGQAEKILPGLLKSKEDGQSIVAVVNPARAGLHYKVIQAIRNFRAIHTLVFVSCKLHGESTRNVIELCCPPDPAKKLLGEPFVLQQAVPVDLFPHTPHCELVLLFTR
UniProt Q92841: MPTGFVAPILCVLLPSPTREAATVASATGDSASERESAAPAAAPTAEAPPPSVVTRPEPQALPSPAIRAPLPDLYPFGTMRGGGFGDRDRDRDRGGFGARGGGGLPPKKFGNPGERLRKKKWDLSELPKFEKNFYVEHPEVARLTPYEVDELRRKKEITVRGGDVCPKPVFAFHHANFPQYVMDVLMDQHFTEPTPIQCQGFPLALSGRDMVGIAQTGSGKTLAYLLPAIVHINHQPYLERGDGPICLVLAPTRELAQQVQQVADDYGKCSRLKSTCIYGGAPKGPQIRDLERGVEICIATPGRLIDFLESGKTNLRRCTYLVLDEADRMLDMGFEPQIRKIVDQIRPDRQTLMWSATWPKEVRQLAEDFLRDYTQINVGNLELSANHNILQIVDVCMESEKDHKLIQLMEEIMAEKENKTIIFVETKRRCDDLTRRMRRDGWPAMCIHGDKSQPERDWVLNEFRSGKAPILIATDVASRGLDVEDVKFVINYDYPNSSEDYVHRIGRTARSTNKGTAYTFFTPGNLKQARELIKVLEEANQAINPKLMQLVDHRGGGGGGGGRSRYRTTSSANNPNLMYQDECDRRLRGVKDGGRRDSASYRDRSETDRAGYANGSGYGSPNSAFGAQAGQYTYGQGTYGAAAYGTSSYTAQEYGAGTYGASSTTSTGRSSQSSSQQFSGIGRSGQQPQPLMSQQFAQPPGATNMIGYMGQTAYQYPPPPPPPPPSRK
UniProt Q96C12: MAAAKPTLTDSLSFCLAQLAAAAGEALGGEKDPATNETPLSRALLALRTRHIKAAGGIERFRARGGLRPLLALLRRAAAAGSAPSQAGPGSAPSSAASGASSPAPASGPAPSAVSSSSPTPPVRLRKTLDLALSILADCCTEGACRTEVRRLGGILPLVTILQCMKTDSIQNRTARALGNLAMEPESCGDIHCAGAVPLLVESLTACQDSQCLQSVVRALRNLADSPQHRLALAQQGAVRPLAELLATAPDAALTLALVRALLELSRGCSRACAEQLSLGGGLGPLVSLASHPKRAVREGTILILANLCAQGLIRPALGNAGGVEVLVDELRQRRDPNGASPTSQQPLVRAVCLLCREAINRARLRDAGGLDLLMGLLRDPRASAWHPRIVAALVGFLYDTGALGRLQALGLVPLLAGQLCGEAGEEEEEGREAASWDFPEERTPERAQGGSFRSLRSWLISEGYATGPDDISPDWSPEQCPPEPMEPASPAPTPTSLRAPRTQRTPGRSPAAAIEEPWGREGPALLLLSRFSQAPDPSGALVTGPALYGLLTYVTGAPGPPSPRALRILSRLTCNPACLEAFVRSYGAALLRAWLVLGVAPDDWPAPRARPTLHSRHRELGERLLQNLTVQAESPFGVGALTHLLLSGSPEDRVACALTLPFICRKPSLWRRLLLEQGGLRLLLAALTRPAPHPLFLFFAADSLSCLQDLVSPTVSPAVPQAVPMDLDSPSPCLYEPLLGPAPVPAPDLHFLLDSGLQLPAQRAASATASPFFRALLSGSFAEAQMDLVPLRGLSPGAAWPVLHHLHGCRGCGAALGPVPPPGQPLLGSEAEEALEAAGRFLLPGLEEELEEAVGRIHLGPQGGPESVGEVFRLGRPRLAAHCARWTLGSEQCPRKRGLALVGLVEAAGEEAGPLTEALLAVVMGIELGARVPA
UniProt Q96EX3: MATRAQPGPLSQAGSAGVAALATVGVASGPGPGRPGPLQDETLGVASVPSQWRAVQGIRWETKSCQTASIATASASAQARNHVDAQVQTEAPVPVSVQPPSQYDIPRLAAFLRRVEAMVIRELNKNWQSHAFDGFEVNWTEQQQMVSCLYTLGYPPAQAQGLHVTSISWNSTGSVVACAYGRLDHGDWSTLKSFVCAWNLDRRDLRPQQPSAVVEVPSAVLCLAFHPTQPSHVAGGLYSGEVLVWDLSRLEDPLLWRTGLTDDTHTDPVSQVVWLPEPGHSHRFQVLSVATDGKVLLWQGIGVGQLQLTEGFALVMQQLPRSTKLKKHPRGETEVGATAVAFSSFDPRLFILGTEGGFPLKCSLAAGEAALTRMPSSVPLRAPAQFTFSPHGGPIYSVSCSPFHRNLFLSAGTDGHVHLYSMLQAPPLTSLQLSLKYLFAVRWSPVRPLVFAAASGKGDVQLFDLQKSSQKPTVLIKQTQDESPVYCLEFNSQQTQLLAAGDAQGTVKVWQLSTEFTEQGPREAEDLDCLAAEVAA
UniProt Q96FB5: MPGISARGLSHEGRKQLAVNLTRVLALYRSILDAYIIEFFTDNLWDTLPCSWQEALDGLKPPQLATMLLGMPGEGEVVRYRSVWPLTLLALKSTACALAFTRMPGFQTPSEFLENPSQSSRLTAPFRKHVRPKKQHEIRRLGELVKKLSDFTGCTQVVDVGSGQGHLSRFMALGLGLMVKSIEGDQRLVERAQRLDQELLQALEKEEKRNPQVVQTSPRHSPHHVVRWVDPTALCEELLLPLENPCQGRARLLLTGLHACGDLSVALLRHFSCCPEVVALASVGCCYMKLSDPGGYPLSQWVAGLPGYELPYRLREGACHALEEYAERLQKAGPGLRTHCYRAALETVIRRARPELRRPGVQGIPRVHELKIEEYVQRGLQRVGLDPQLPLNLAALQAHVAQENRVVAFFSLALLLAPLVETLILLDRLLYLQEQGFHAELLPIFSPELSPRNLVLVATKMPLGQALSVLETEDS
UniProt Q96EP5: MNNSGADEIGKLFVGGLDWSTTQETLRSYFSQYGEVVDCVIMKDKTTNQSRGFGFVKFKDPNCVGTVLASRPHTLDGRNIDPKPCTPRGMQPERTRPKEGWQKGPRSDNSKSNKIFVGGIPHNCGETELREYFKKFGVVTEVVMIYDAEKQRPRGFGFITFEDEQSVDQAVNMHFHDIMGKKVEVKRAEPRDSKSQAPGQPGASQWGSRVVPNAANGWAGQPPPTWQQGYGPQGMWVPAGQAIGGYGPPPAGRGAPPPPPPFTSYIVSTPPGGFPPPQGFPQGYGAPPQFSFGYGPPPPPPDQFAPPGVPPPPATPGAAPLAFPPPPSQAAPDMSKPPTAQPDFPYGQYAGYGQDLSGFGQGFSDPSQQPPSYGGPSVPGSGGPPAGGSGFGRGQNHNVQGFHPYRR
UniProt Q969Z0: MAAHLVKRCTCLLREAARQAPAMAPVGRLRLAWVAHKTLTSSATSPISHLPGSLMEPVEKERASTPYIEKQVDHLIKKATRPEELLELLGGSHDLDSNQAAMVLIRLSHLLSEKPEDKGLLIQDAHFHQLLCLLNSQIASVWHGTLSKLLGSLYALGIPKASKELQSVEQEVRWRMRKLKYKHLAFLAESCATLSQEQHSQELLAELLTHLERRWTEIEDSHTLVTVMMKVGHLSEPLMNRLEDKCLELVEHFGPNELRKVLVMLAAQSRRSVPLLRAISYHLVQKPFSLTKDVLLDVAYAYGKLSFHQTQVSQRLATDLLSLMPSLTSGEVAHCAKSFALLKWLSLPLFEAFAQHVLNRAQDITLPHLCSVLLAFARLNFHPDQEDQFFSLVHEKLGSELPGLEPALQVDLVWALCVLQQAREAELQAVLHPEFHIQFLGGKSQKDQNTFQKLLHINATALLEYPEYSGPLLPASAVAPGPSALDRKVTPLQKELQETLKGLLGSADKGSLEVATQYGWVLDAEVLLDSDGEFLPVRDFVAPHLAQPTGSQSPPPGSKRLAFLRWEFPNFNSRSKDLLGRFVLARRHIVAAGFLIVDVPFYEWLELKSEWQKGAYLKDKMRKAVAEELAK
UniProt Q92901: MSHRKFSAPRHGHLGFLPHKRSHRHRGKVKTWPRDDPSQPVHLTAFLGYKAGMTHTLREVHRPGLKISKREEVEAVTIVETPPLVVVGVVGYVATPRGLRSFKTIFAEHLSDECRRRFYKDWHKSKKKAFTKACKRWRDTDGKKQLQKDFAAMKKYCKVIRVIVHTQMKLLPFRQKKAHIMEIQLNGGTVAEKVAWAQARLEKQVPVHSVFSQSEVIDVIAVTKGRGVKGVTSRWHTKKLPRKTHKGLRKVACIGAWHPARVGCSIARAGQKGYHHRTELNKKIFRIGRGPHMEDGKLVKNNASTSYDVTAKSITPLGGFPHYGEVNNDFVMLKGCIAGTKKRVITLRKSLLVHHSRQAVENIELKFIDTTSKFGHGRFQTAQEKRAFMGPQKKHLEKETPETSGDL
UniProt Q92843: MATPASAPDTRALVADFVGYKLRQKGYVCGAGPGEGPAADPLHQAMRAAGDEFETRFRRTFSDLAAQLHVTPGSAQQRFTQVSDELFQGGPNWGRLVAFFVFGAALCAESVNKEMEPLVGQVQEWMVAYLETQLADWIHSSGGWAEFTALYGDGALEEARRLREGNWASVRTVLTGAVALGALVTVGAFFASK

Some of the results follow. Small differences around the control level are noise.

Compound in this assay: CN[C@@H]1C[C@H]2O[C@@](C)([C@@H]1OC)n1c3ccccc3c3c4c(c5c6ccccc6n2c5c31)C(=O)NC4 [staurosporine]
Nature of the assay: log2 fold change of tryptic peptide abundance, ligand vs vehicle (limited proteolysis) (log2 ratio); higher = more trypsin-susceptible (destabilized). Conditions: ligand concentration: 20 uM; sample: K562 cleared lysate; digestion: 4 min, 22 C (HT-PELSA RT4min, Orbitrap Astral).
With “CUL5 (peptide sequence: MREEENEGIVQLR, peptide start residue: 699) (UniProt Q93034)”, the log2 fold change is -0.348.
In the case of “RPL36AL (peptide sequence: GKDSLYAQGR, peptide start residue: 29) (UniProt Q969Q0)”, the log2 fold change amounted to 0.0913.
On to “KIAA1191 (peptide sequence: ATHVIMNSLITK, peptide start residue: 101) (UniProt Q96A73)”, for which the log2 fold change came to 0.172.
“GCC1 (peptide sequence: MEASYLADK, peptide start residue: 182) (UniProt Q96CN9)”: the log2 fold change was -0.358.
For the target “UniProt Q969W8 (peptide sequence: AFSSGSNFTR, peptide start residue: 263)”, the log2 fold change is -0.151.
In the case of “PSMG2 (peptide sequence: CIPEIDDSEFCIR, peptide start residue: 168) (UniProt Q969U7)” it was -0.306; in that of “DCPS (peptide sequence: ELDVEEAHAASTEEK, peptide start residue: 14) (UniProt Q96C86)”, -0.0793.
In the case of “NUDT16 (peptide sequence: SSHVGSGPR, peptide start residue: 97) (UniProt Q96DE0)” it was 0.252; in that of “UBE2W (peptide sequence: WWYHDDTC, peptide start residue: 144) (UniProt Q96B02)”, -0.739.
“VTI1A (peptide sequence: AHLLDNTER, peptide start residue: 116) (UniProt Q96AJ9)”: the log2 fold change turned out to be 0.141.
In the case of “NT5C3B (peptide sequence: AHNLLCQQK, peptide start residue: 109) (UniProt Q969T7)” it was 0.747; in that of “SMARCE1 (peptide sequence: SRAEAALEEESR, peptide start residue: 147) (UniProt Q969G3)”, -0.196.
For the target “KHSRP (peptide sequence: DQGGFGDRNEYGSR, peptide start residue: 307) (UniProt Q92945)”, the log2 fold change is -0.174.
Consider “MRPL48 (peptide sequence: TKPTHGIGK, peptide start residue: 50) (UniProt Q96GC5)”, for which the log2 fold change turned out to be 0.0654.
Consider “HPS3 (peptide sequence: MIGHNVEGPFSK, peptide start residue: 108) (UniProt Q969F9)”, for which the log2 fold change was determined as 0.284.
Under “PPP1R14B (peptide sequence: VKELLVDCYKPTEAFISGLLDK, peptide start residue: 113) (UniProt Q96C90)” stands 0.154; under “SAAL1 (peptide sequence: VDLPLIDSLIR, peptide start residue: 348) (UniProt Q96ER3)”, -0.131; under “OSBP2 (peptide sequence: KVTGVVSDSQGK, peptide start residue: 730) (UniProt Q969R2)”, 0.537.
Under “CASP10 (peptide sequence: DMIFLLK, peptide start residue: 133) (UniProt Q92851)” stands -0.152; under “TRMT2B (peptide sequence: LADVVTPLWR, peptide start residue: 84) (UniProt Q96GJ1)”, -0.215; under “UniProt Q92841 (peptide sequence: RCDDLTRR, peptide start residue: 430)”, 0.587.
For the target “ARMC5 (peptide sequence: NLADSPQHR, peptide start residue: 222) (UniProt Q96C12)”, the log2 fold change is -0.0979.
In the case of “WDR34 (peptide sequence: MPSSVPLR, peptide start residue: 374) (UniProt Q96EX3)” it was 0.32; in that of “UniProt Q96FB5 (peptide sequence: HSPHHVVR, peptide start residue: 220)”, 0.206; in that of “DAZAP1 (peptide sequence: LFVGGLDWSTTQETLR, peptide start residue: 12) (UniProt Q96EP5)”, -0.234.
In the case of “TBRG4 (peptide sequence: VGHLSEPLMNRLEDK, peptide start residue: 231) (UniProt Q969Z0)” it was 0.233; in that of “RPL3L (peptide sequence: VACIGAWHPAR, peptide start residue: 251) (UniProt Q92901)”, -0.209; in that of “BCL2L2 (peptide sequence: ALVADFVGYK, peptide start residue: 12) (UniProt Q92843)”, -0.27.
